Data source: PubChem BioAssay AID1224826 (NIAID, 2016)

Assay: 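Knock-downs that raise or lower Tnf reporter signal after endotoxin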 (primary screen)
Cell system: RAW264.7 G9 macrophages from mouse bearing reporters for p65 (GFP) and the Tnf promoter (mCherry)
Reagent: siRNA pool against mouse genes, 100 nM
Time to read-out: 16 h of LPS stimulation, after 2 days of siRNA transfection
Treatment: bacterial lipopolysaccharide (Salmonella minnesota R595), 10 ng/ml
Measured: 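Nuclear mCherry signal of the Tnf promoter reporter measured by imaging after background removal, scaled to each plate median and turned into robust z-scores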
Scale: Tnf reporter robust z-score: higher = stronger Tnf promoter reporter signal after LPS
Hit rule: 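Called active when robust z-score is at most -1.3, matching the median of the Tlr4 knock-down control, or over 3; control wells and wells with under 50 cells never active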
Meaning of the calls: active = Tnf reporter clearly lowered or raised; inactive = no clear change in Tnf reporter
Here is an unselected part of about 17,000 reagents tested. About 1,110 of all reagents (6.6%) count as active. 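Active means lowered or raised reporter signal; replicate intensities are raw and not normalised per plate.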 Entries without a mark were called inactive. Further read-outs or replicates are left out here. Reagent sequences are not shown.

The opening 3 records, to show the layout:
target	PubChem SID	Tnf reporter robust z-score	fewer than 50 cells in well
Or5b121 (olfactory receptor family 5 subfamily B member 121)	SID315481954	0.44	enough cells in well
Psbpc1 (retired record)	SID315477051	-1.07	enough cells in well
Adgrf1 (adhesion G protein-coupled receptor F1)	SID315475487	0.91	enough cells in well

Results, repeating the preview:
target	PubChem SID	Tnf reporter robust z-score	fewer than 50 cells in well
Or5b121 (olfactory receptor family 5 subfamily B member 121)	SID315481954	0.44	enough cells in well
Psbpc1 (retired record)	SID315477051	-1.07	enough cells in well
Adgrf1 (adhesion G protein-coupled receptor F1)	SID315475487	0.91	enough cells in well
Prpf3 (pre-mRNA processing factor 3)	SID315474123	0.1	enough cells in well
Kptn (kaptin)	SID315474038	-0.33	enough cells in well
Cacna1e (calcium channel, voltage-dependent, R type, alpha 1E subunit)	SID315465710	-0.24	enough cells in well
Rbm26 (RNA binding motif protein 26)	SID315474910	0.52	enough cells in well
Hspb1 (heat shock protein family B (small) member 1)	SID315467324	1.71	enough cells in well
Lin37 (lin-37 DREAM MuvB core complex component)	SID315475173	2.03	enough cells in well
Oas1g (2'-5' oligoadenylate synthetase 1G)	SID315470255	0.34	enough cells in well
St8sia2 (ST8 alpha-N-acetyl-neuraminide alpha-2,8-sialyltransferase 2)	SID315469245	5.23 (active)	enough cells in well
Serpina11	SID315481756		fewer than 50 cells per well; well left out of calls
Eif1ax (eukaryotic translation initiation factor 1A, X-linked)	SID315472308	-0.74	enough cells in well
Cox8b (cytochrome c oxidase subunit 8B)	SID315466088	-0.65	enough cells in well
Gria1 (glutamate receptor, ionotropic, AMPA1 (alpha 1))	SID315467024	0.14	enough cells in well
Rnf167 (ring finger protein 167)	SID315474072	2.48	enough cells in well
Gm2a (GM2 ganglioside activator protein)	SID315466936	-0.3	enough cells in well
Taf6 (TATA-box binding protein associated factor 6)	SID315469573	1.73	enough cells in well
Nxt2 (nuclear transport factor 2-like export factor 2)	SID315479326	-0.35	enough cells in well
Setd5 (SET domain containing 5)	SID315474642		fewer than 50 cells per well; well left out of calls
Lamp3 (lysosomal-associated membrane protein 3)	SID315479459	-0.31	enough cells in well
Grb10 (growth factor receptor bound protein 10)	SID315467012	-0.92	enough cells in well
PLEKHK1	SID315482039		fewer than 50 cells per well; well left out of calls
Skil (SKI-like proto-oncogene)	SID315469266	0.55	enough cells in well
Zfand3 (zinc finger, AN1-type domain 3)	SID315469674	0.17	enough cells in well
Or8k20 (olfactory receptor family 8 subfamily K member 20)	SID315481940	-0.32	enough cells in well
Or2l13b (olfactory receptor family 2 subfamily L member 13B)	SID315480042	-0.43	enough cells in well
Osbpl6 (oxysterol binding protein-like 6)	SID315476162	-0.26	enough cells in well
Zbtb22 (zinc finger and BTB domain containing 22)	SID315475789	-0.49	enough cells in well
Fxn (frataxin)	SID315466747	-0.41	enough cells in well
Cldnd1 (claudin domain containing 1)	SID315478334	-0.93	enough cells in well
Rab1a (RAB1A, member RAS oncogene family)	SID315468842	-0.35	enough cells in well
Eif1 (eukaryotic translation initiation factor 1)	SID315469526	-1.43 (active)	enough cells in well
Mrpl16 (mitochondrial ribosomal protein L16)	SID315476025	-1.25	enough cells in well
Efr3a (EFR3 homolog A)	SID315475369	-1.3 (active)	enough cells in well
Efr3a (EFR3 homolog A)	SID315481274	1.82	enough cells in well
Mpnd (MPN domain containing)	SID315473387	0.65	enough cells in well
Ergic3 (ERGIC and golgi 3)	SID315472391		fewer than 50 cells per well; well left out of calls
Rbm18 (RNA binding motif protein 18)	SID315473290	-0.04	enough cells in well
Grem1 (gremlin 1, DAN family BMP antagonist)	SID315470221	-0.71	enough cells in well
Abcg8 (ATP binding cassette subfamily G member 8)	SID315473049	0.39	enough cells in well
Dpysl3 (dihydropyrimidinase-like 3)	SID315469931	-0.79	enough cells in well
Ngp (neutrophilic granule protein)	SID315468171	-0.05	enough cells in well
Actg2 (actin, gamma 2, smooth muscle, enteric)	SID315465270	-0.25	enough cells in well
Slc35b1	SID315476880	1.17	enough cells in well
Babam1 (BRISC and BRCA1 A complex member 1)	SID315473474		fewer than 50 cells per well; well left out of calls
Nrg4 (neuregulin 4)	SID315475879	-1.22	enough cells in well
Or10v1 (olfactory receptor family 10 subfamily V member 1)	SID315480089	-1.03	enough cells in well
Pomp (proteasome maturation protein)	SID315472500		fewer than 50 cells per well; well left out of calls
Nsd2 (nuclear receptor binding SET domain protein 2)	SID315476647	-0.35	enough cells in well
B630019K06Rik (RIKEN cDNA B630019K06 gene)	SID315476354	0.46	enough cells in well
Vrk3 (vaccinia related kinase 3)	SID315476288	0.16	enough cells in well
Rab31 (RAB31, member RAS oncogene family)	SID315476549		fewer than 50 cells per well; well left out of calls
Zgpat (zinc finger, CCCH-type with G patch domain)	SID315478685	-0.44	enough cells in well
Unc13a (unc-13 homolog A)	SID315477662	1.56	enough cells in well
Rlim (ring finger protein, LIM domain interacting)	SID315468986	-0.37	enough cells in well
Rlim (ring finger protein, LIM domain interacting)	SID315468987	-0.31	enough cells in well
Slc18a1	SID315476943	1.79	enough cells in well
Btbd16 (BTB domain containing 16)	SID315481609	3.57 (active)	enough cells in well
Or1j19 (olfactory receptor family 1 subfamily J member 19)	SID315480566	-0.45	enough cells in well
Pla2r1 (phospholipase A2 receptor 1)	SID315468560	0.44	enough cells in well
Adh7 (alcohol dehydrogenase 7 (class IV), mu or sigma polypeptide)	SID315465309	-0.05	enough cells in well
Mecr (mitochondrial trans-2-enoyl-CoA reductase)	SID315470484	-0.71	enough cells in well
Epgn (epithelial mitogen)	SID315474380	0.16	enough cells in well
Igbp1b (immunoglobulin (CD79A) binding protein 1b)	SID315470812	-0.11	enough cells in well
Slc35e4	SID315476383		fewer than 50 cells per well; well left out of calls
Nprl2 (NPR2 like, GATOR1 complex subunit)	SID315471347	-0.29	enough cells in well
Blcap (bladder cancer associated protein)	SID315471094	0.89	enough cells in well
Clip4 (CAP-GLY domain containing linker protein family, member 4)	SID315475619	0.88	enough cells in well
Ube2t (ubiquitin-conjugating enzyme E2T)	SID315472891	0.2	enough cells in well
Ugt3a1 (UDP glycosyltransferases 3 family, polypeptide A1)	SID315478256	1	enough cells in well
Pls3 (plastin 3 (T-isoform))	SID315476351	-2.12 (active)	enough cells in well
Cyp2c55 (cytochrome P450, family 2, subfamily c, polypeptide 55)	SID315474446	0.57	enough cells in well
Slc25a35	SID315474415	-1.06	enough cells in well
Tmco6 (transmembrane and coiled-coil domains 6)	SID315474405		fewer than 50 cells per well; well left out of calls
